Assay results from PMC5435687 (Scientific Reports, 2017).

Tested on: SH-SY5Y cells
Assay: Co-localisation of Aβ with LysoTracker Deep Red (confocal, JACoP, Mander's coefficient)
Format: cell-based, human
Settings: 500 nM peptide 24 h, washed, additional 5 h, mean ± SD of 21 images, ~5 cells each, three samples

“Aβ(1–40): Synthetic 40 residue amyloid-β peptide conjugated to HiLyte Fluor HF488 (or HF647) at the N-terminus, from Anaspec” was tested, and the “fraction of Aβ colocalising with Lysotracker Deep Red stained compartments (Mander's coefficient)” value was 90.8 ± 3.6% and > 90%.

Several values for one entry are separate records, joined by “and”; a condition that tells them apart may be missing. Identical values can stand only once.
